Data: article PMC6205183 (Oncotarget, 2018)

Experiments:
K562 DOX 55D-R cells = test: cells; settings: Homo sapiens, K562, read-out: TKI viability assay IC50
Method: (§1) Cells were removed from drug-containing culture medium, washed and re-cultured in fresh media (with testing drug) for 72 hours. Cells then were stained with 7-Amino-actinomycin D (7AAD) and Annexin V-PE. Flow cytometry (BD LSRFortessaTM X-20 with high-throughput platform) was performed to determine cell viability: cells stained positive for Annexin V-PE and 7AAD were considered to be apoptotic or dead respectively. The data were analysed using FCS Express software (DeNovo Software, Los Angeles, California, USA).

K562 T315I-R cells = test: cells; settings: Homo sapiens, K562, read-out: TKI viability assay IC50
Method: as §1

K562-R cells = test: Viability assay (Annexin V/7AAD), K562-R; assay type: cell-based; settings: Homo sapiens, K-562R, read-out: TKI viability assay IC50
Method: as §1

K562 DOX-R cells = test: Viability assay (Annexin V/7AAD), K562 DOX-R; assay type: cell-based; settings: Homo sapiens, read-out: TKI viability assay IC50
Method: as §1

IC50 (K562 DOX 55D-R cells): > 2000 nM | IC50 (K562 T315I-R cells): > 2000 nM | IC50 (K562-R cells): > 2000 nM | IC50 (K562 DOX-R cells): > 2000 nM
Compound: Cc1ccc(NC(=O)c2ccc(CN3CCN(C)CC3)cc2)cc1Nc1nccc(-c2cccnc2)n1 [imatinib]
